Measured values reported in article PMC10851228.
Results are given in words; binding and its absence hold for the method and conditions named. In cells and extracts the contact can be indirect. Some binding calls cover weakened binding; strength is not graded here. Where a sequence is shown, tags or fusion partners need not be part of it. One block for each binder: values may come before it.

Target: T1, His-tagged Snf1 (S. cerevisiae) (UniProt P06782)
T1 sequence: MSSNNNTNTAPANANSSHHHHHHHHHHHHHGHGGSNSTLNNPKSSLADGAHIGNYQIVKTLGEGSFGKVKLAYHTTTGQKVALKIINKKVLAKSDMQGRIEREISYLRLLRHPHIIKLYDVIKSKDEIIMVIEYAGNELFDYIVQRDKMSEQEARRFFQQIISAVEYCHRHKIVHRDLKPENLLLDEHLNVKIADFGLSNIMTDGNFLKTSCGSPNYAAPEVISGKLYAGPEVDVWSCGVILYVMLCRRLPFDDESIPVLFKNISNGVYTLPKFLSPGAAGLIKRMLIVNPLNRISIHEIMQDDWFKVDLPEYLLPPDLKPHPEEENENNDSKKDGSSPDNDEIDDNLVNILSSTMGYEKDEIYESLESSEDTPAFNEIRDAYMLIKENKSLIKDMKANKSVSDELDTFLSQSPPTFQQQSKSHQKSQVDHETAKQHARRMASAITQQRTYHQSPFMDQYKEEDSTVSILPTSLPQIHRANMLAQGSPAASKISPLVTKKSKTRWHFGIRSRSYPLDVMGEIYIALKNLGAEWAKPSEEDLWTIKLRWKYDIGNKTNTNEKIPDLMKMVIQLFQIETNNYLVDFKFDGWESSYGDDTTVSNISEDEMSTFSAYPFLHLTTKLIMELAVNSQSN
Assay: pull-down; co-purification from lysate of E. coli co-expressing the subunits; His-tagged Snf1 held on Talon beads (the results say nickel column), 1 h at 4 °C; 25 mM Tris-HCl, 200 mM NaCl, 10 mM imidazole, 5 mM β-mercaptoethanol, pH 7.4; washed three times; eluted with 200 mM imidazole

binding: binds
B1: Gal83 (protein, UniProt Q04739 1-417)
chain: MAGDNPENKDASMLDVSDAASNTTINGKHSADSTNEASLAYTFSQMNVDNPNELEPQHPLRHKSSLIFNDDDDDEIPPYSNHAENGSGETFDSDDDIDASSSSSIDSNEGDIHDADMTGNTLQKMDYQPSQQPDSLQNQGFQQQQEQQQGTVEGKKGRAMMFPVDITWQQGGNKVYVTGSFTGWRKMIGLVPVPGQPGLMHVKLQLPPGTHRFRFIVDNELRFSDYLPTATDQMGNFVNYMEVSAPPDWGNEPQQHLAEKKANHVDDSKLSKRPMSARSRIALEIEKEPDDMGDGYTRFHDETPAKPNLEYTQDIPAVFTDPNVMEQYYLTLDQQQNNHQNMAWLTPPQLPPHLENVILNSYSNAQTDNTSGALPIPNHVILNHLATSSIKHNTLCVASIVRYKQKYVTQILYTPLQ

binding: binds
B2: Snf4 (protein, UniProt P12904 1-322)
chain: MKPTQDSQEKVSIEQQLAVESIRKFLNSKTSYDVLPVSYRLIVLDTSLLVKKSLNVLLQNSIVSAPLWDSKTSRFAGLLTTTDFINVIQYYFSNPDKFELVDKLQLDGLKDIERALGVDQLDTASIHPSRPLFEACLKMLESRSGRIPLIDQDEETHREIVVSVLTQYRILKFVALNCRETHFLKIPIGDLNIITQDNMKSCQMTTPVIDVIQMLTQGRVSSVPIIDENGYLINVYEAYDVLGLIKGGIYNDLSLSVGEALMRRSDDFEGVYTCTKNDKLSTIMDNIRKARVHRFFVVDDVGRLVGVLTLSDILKYILLGSN
